This passage reports binding results from patent US20230183345A1.

These are yes or no findings as the source states them, for the method shown. Binding calls can cover weak binding; strength is not graded here.

The target of this experiment is monkey TIGIT (monkey). The experiment in a line: hybridoma screening, ELISA and FACS. (ELISA stands for enzyme-linked immunosorbent assay.)

B1: B3/29F6 (antibody, V domains shown)
VH: DVQLQESGPGLVKPSQSLSLTCTVTGYSITSDYAWIWIRQFPGNKVEWMGYITSSGSTSYNPSLKSRISFTRDTSKNQFFLQLTSVTTEDTATYYCARLDFGNYGGAMDYWGQGTSVTVSS
VL: DIVMTQSHKFMSTSIGDRVSITCKASQHVSTAVAWYQQKPGQSPKLLIYSASYRYTGVPDRFTGSRSGTDFTFTISSVQAEDLAVYYCQQHYITPYTFGGGTKLEIK
For the molecule B1, the binding result was “binds”.
